Test results: doi:10.1101/2022.09.16.508217 (bioRxiv, 2022)
No constants are given. Whether binding was seen depends on the method and setting. In cells and extracts the contact can be indirect. Some binding calls cover weakened binding; strength is not graded here.

Protein sequences, listed by entry. Tags and fused reporters are not part of them. Lines headed by an entry give the natural chain unless they say otherwise; changes in a name come on top. Chains listed by the source or under a name are the forms on record and can include a tag or linker.
UniProt P15873: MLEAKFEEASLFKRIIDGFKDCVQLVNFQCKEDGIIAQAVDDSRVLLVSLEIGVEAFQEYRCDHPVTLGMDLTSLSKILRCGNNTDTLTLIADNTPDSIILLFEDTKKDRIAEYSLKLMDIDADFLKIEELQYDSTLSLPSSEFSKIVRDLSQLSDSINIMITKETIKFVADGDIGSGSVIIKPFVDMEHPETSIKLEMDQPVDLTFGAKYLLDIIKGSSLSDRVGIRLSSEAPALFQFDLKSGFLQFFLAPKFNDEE
UniProt Q04002: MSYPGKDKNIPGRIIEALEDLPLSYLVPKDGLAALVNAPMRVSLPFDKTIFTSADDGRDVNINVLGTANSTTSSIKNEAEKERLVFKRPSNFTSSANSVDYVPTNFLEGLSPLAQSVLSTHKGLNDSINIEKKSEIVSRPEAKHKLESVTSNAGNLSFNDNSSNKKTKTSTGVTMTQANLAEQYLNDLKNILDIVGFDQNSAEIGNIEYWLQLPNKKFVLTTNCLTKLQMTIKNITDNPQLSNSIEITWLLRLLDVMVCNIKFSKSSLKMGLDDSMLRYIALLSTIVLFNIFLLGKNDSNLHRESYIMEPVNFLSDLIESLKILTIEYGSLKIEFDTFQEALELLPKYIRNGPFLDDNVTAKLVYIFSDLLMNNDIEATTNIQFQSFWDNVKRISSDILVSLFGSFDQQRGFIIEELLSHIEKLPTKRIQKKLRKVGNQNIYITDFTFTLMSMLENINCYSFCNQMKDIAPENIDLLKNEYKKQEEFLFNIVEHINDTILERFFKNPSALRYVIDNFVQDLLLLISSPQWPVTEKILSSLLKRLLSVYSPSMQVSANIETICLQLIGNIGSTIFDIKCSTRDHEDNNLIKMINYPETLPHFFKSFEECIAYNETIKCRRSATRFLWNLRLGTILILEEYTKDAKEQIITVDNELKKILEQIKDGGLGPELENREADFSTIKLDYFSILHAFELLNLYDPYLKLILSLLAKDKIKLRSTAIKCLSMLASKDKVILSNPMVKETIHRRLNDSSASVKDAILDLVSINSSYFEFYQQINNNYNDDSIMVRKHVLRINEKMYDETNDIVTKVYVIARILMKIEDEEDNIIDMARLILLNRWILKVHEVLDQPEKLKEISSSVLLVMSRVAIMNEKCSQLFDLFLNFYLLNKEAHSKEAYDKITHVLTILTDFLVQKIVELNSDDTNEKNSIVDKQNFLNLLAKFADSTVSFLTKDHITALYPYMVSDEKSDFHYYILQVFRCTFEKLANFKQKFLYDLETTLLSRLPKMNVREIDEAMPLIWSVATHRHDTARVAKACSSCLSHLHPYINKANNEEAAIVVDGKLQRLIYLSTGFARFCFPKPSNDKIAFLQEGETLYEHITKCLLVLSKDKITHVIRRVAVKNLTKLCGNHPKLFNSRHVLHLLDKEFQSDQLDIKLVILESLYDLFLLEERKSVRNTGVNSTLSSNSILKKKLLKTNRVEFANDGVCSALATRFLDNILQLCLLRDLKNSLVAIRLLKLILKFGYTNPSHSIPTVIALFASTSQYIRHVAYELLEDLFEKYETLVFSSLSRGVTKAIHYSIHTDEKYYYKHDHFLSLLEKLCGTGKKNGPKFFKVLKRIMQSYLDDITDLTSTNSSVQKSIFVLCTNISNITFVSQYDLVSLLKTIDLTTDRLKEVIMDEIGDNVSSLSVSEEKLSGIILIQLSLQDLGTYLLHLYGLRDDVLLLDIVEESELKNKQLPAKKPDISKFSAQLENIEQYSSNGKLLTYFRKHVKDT
N-terminally 7His8FLAG-tagged Scc2-E822K-pip (PIP mutant variant) (Q04002, form named): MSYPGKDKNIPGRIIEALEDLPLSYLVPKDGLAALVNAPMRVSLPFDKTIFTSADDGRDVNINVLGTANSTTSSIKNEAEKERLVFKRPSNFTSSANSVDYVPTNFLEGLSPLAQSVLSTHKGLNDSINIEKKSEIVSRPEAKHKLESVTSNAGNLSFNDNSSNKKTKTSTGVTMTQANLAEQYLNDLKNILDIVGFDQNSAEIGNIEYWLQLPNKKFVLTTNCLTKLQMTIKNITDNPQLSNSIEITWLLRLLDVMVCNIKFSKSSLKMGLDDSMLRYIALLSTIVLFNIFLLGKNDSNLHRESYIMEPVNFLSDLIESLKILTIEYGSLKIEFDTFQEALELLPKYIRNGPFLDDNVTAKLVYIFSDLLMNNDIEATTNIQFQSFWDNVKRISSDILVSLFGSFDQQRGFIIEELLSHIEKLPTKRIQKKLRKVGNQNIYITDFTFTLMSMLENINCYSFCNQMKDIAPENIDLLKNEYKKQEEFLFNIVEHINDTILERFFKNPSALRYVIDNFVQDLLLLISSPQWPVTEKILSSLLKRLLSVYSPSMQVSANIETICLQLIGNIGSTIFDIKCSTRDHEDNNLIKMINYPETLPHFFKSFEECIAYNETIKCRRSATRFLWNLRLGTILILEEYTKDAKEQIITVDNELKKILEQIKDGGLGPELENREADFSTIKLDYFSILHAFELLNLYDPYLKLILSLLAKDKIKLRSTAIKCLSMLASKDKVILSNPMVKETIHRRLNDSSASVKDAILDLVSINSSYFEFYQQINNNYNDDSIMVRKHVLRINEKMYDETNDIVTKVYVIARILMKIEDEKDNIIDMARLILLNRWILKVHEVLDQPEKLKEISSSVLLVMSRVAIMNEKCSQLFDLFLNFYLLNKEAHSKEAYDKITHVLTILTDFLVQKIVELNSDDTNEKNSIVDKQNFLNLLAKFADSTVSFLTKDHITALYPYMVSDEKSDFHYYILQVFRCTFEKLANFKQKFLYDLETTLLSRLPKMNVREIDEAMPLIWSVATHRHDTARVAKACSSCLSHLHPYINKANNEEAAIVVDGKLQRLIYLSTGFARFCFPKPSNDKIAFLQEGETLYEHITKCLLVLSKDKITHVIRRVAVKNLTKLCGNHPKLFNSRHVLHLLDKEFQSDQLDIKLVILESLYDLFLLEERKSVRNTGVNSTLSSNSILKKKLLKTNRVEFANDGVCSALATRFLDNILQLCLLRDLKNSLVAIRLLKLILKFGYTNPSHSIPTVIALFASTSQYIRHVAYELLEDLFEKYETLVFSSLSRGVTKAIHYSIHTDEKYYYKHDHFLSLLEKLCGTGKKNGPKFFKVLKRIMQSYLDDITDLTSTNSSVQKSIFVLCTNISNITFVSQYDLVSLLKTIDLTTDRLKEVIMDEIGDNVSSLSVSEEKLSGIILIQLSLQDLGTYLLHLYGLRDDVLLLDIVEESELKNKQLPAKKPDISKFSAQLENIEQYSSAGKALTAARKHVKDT

Legend:
[1] = target: recombinant GST-Pol30 fusion (yeast PCNA) (S. cerevisiae) (UniProt P15873); assay: pull-down
[2] = target: N-terminally 7His8FLAG-tagged Scc2-E822K-pip (PIP mutant variant) (S. cerevisiae) (UniProt Q04002); assay: cross-linking
[3] = target: N-terminally 7His8FLAG-tagged Scc2-E822K (S. cerevisiae) (UniProt Q04002); assay: cross-linking

Row | Substance | binding [1] | binding [2] | binding [3]
1 | N-terminally 7His8FLAG-tagged Scc2-E822K (from UniProt Q04002 1-1493) | binds |  | 
2 | PCNA (yeast Pol30), endogenous (from UniProt P15873 1-258) |  | no binding | binds
